# Results of single-concentration screens

The values are deposited in ChEMBL (CHEMBL3988442, “University of Dundee, Small-Polar-MMV Screening Library” (2021)).

Results are given as percent effect.
How 0% and 100% were set is not recorded. Most values in the screen are low, and negative values occur.
Compounds were drawn at random from those tested, without regard to their results.

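Whole-parasite assay of Trypanosoma brucei over 72 hours; the read-out is not stated. Concentration: 30 µM. Direction is inferred from retests: higher values go with stronger inhibition. Values scatter widely below zero; nearly all retest evidence comes from the higher of the two concentrations used. Of about 64,000 compounds tested this way, about 940 (1.5%) reached 50% or more in at least one test.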

SMILES | effect
Cc1cc(C2CCCN(C(=O)c3ccc(OCC4CC4)nc3)C2)n[nH]1 (stereo unspecified) | -25.53
O=C(CO)N1CCCC2(CCC(=O)N(CC3CC3)C2)C1 (stereo unspecified) | 11.72
COc1ccc(CNCc2c(C)nn(C)c2N2CCOCC2)cc1 | -7.648
CCOC(=O)CCC(=O)N1CCC(Oc2ncccc2Cl)CC1 | 11.64
Cc1ccc(Oc2cc(F)ccc2O[C@@H]2CCC[C@@H](N)[C@H]2O)cc1 | 100.7
COC1CN(CCO)S(=O)(=O)c2ccccc21 (stereo unspecified) | -24.23
O=C(c1ccc[nH]1)N1CCC2(CC1)C(=O)Nc1ccccc12 | 14.02
CNc1nc(CS(=O)(=O)c2ccccc2)cs1 | -4.053
O=C(Nc1cccc(CNCc2cccs2)c1)C1CCCC1 | 25.14
Cc1ccc([C@@H]2CN(C(=O)CCc3cc(Cl)no3)C[C@H]2N(C)C)cc1 | -24.94
CCOC(=O)c1nc(CC(=O)Nc2ccccc2)no1 | -14.24
O=C(Cn1ccc2c(Cl)cccc21)N1CCCC1 | -17.68
O=C(NCCCn1ccnn1)C1CCCN(C2CCCC2)C1 (stereo unspecified) | -15.06
Cl.Cl.Cn1cc(CN2CCc3c(CNC(=O)C4CC4)cncc3C2)cn1 | -77.77
O=C(c1ccoc1)N1CCC(Nc2cccnn2)CC1 | -6.1
CCC(CN1CCOCC1)n1cncc1-c1ccc2c(c1)CCCN2C.Cl (stereo unspecified) | -20.38
Cc1nc(CN2CCOC3(CCCC3)C2)oc1C | -38.58
O=C(c1c2c(NCC3CC3)ncnc2n2ccccc12)N1CCOCC1 | -9.222
CC(C)C1=NOC(c2nc(Cc3ccccc3)no2)C1 (stereo unspecified) | 11.39
c1csc(-c2noc(C3CCCOC3)n2)c1 (stereo unspecified) | 0.3536
COc1cccc2c1OCC(CNC(=O)COCC(F)(F)C(F)F)C2 (stereo unspecified) | -225.7
CC(=O)N(Cc1noc(C2CC2)n1)C1CCN(Cc2cccnc2)C1 (stereo unspecified) | 20.25
C=C(C)CN1CCCC(NS(C)(=O)=O)C1 (stereo unspecified) | -0.657
O=C(NS(=O)(=O)c1cccnc1)C1CC(c2ccccc2)=NO1 (stereo unspecified) | 0.1779
CC(=O)c1ccc(CN2C[C@@H](CN3CCC(O)CC3)[C@@H](CO)C2)cc1 | -8.433
COCCC1(C(=O)O)CCCN(CCc2ccccc2)C1 (stereo unspecified) | -38.82
O=C(c1cc2c(F)cccc2[nH]1)N1CCC(Nc2cccnn2)CC1 | -20.13
CCC(c1ccc(F)cc1F)S(=O)(=O)CCO (stereo unspecified) | -1.908
CCN1CCOC(CNc2nccc(C(F)(F)F)n2)C1 (stereo unspecified) | -40.08
CC(C)Cc1nnc2sc(-c3cc(C(C)C)n[nH]3)nn12 | -44.72
Cc1ccc(CN2CC[C@@H](N3CCOCC3)[C@@H]2Cc2cccnc2)o1.O=C(O)C(F)(F)F.O=C(O)C(F)(F)F.O=C(O)C(F)(F)F | 0.3223
CC(C)S(=O)(=O)N1CCCC(c2nnc(Cn3ccnc3)n2C)C1 (stereo unspecified) | -1.715
CCc1ccccc1-n1nnc(C(=O)O)c1-c1ccccn1 | 23.93
CN1CCCC1c1cc2cccnc2n1Cc1ccc(F)cc1.Cl (stereo unspecified) | -6.063
O=C1CN(S(=O)(=O)CC(F)(F)F)CC(O)CN1CCCc1ccccc1 (stereo unspecified) | 2.59
CC(C)c1nc(C(=O)N2CCOCC2CC(=O)c2ccco2)c[nH]1 (stereo unspecified) | -1.91
Cc1cc(CN(C)CC2(O)CCCN(CCC3CCCCC3)C2=O)no1 (stereo unspecified) | -6.99
CN(Cc1cnn(C)c1)CC(O)c1ccc2c(c1)OCCCO2 (stereo unspecified) | -52.42
Cc1nnc(CCNC(=O)c2coc(CN3CCOCC3)c2)s1 | 1.58
CCCN(C)c1ncc2c(n1)N(C)CCN(CC1CC1)C2=O | -8.692
Cc1nc(N2CCOCC2)ncc1-c1cc(O)nc(N2CCCC2)n1 | -9.178
CC(C)c1noc(CN2CCC(C3CCCCCN3S(C)(=O)=O)CC2)n1.Cl (stereo unspecified) | -5.967
[H][C@]12CC[C@]([H])(CN(C(=O)Cc3cnc(C)[nH]c3=O)C1)N(CC1CCC1)C2 | -0.1133
O=C(c1ccc(-c2ccccc2)[nH]c1=O)N1CCN(C2CC2)CC1 | -17.15
Cc1nnc(CN(C)C2CCN(Cc3nc4ccccc4n3C)C2)o1 (stereo unspecified) | -2.274
Nc1ncncc1-c1noc([C@@H]2CCCN2CCCc2ccccc2)n1 | 101.5
O=C(c1n[nH]cc1Cl)N1CCOC(Cc2cccc(C(F)(F)F)c2)C1 (stereo unspecified) | -36.15
O=C(c1ccccn1)N1CCc2nc(-c3cnccn3)nc(O)c2C1 | -18.76
COCCN1CCOCC2(CCCN(Cc3cccc(F)c3)C2)C1.O=C(O)C(F)(F)F.O=C(O)C(F)(F)F (stereo unspecified) | -34.25
Cn1cccc1C(=O)NC(C)(C(N)=O)c1cccc(Cl)c1 (stereo unspecified) | -20.13
O=S(=O)(NC1CCCN(c2ncccn2)C1)N1CCCCCC1 (stereo unspecified) | -32.06
CCc1nc(CN2CC[C@@](O)(CCOC)[C@H](C)C2)cs1 | -14.3
O=C(CCc1cc2n(n1)CCCN(C(=O)[C@H]1CCCO1)C2)NC1CC1 | -23.92
O=C(O)c1ccccc1CN1CCCC(Cc2ccn[nH]2)C1 (stereo unspecified) | -6.797
O=C(C1CCCOC1)N1CCCc2ccccc21 (stereo unspecified) | -49.13
CCO[C@H]1CO[C@@]2(CCN(Cc3ccc4c(c3)OCO4)C2)C1.O=C(O)C(F)(F)F | 0.8644
COc1cc(-n2cc(CCO)cn2)ccc1NC(C)=O | -7.401
O=S1(=O)CCC(N(CCc2ccc3c(c2)CCO3)C2CC2)C1 (stereo unspecified) | -13.6

6 of the entries, repeated:

* O=C(NS(=O)(=O)c1cccnc1)C1CC(c2ccccc2)=NO1 (stereo unspecified) : 0.1779%
* Cc1nnc(CCNC(=O)c2coc(CN3CCOCC3)c2)s1 : 1.58%
* O=C(c1ccccn1)N1CCc2nc(-c3cnccn3)nc(O)c2C1 : -18.76%
* CCC(c1ccc(F)cc1F)S(=O)(=O)CCO (stereo unspecified) : -1.908%
* Cc1cc(C2CCCN(C(=O)c3ccc(OCC4CC4)nc3)C2)n[nH]1 (stereo unspecified) : -25.53%
* CC(C)S(=O)(=O)N1CCCC(c2nnc(Cn3ccnc3)n2C)C1 (stereo unspecified) : -1.715%